# Measurements reported in PubChem BioAssay AID652243 (Drosophila RNAi Screening Center, 2013).
# Test: 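Fly regulators of androgen-dependent reporter output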 (primary screen)
# Cell system: Drosophila S2R+ cells
# Reagents: long dsRNA against Drosophila genes
# Time to read-out: 72 h (48 h, then 24 h hormone)
# Treatment: synthetic androgen R1881 at 10 nM for 24 h
# Measured: 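Firefly light from an androgen-responsive reporter and Renilla control light per well, raw and unnormalised, for each of two replicates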
# Direction: firefly reporter light: higher = more light from androgen-responsive reporter; Renilla control light: higher = more constitutive control signal (cell number, transfection)
# Hit rule: 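Across duplicate plates, a knock-down whose log firefly/Renilla ratio shifted a set fold down or up from the GFP/LacZ control mean was a hit; the downward cut appears as both 1.5 and 3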
# Meaning of the calls: active = hit: reporter lowered or raised; inactive = no hit
# The screen tested about 24,000 reagents; shown is a random part of those with a known target gene and a result. Over the whole deposit, 246 (1%) got an active call. 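Plates not normalised; calls are printed but the firefly/Renilla ratio behind them is not deposited; fold cut for lowering reported inconsistently.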 The raw values are shown without normalisation. Reagents against one gene are numbered here. Not given: the amount of reagent.
target gene,reagent,"firefly reporter light, replicate 1","firefly reporter light, replicate 2","Renilla control light, replicate 1","Renilla control light, replicate 2",activity call
CG11537,1,9.44e5,1.15e6,1.55e6,1.34e6,inactive
Gadd45,1,3.12e5,2.21e5,1.66e6,1.61e6,inactive
CG10674,1,1.86e5,1.96e5,2.49e6,3.15e6,inactive
TwdlR,1,1.95e5,1.42e5,1.84e6,1.96e6,inactive
mRpS26,1,2.64e5,1.90e5,1.93e6,2.22e6,inactive
mRpS26,2,3.98e5,4.82e5,7.03e5,7.26e5,inactive
CG32161,1,2.57e5,2.85e5,1.33e6,1.07e6,inactive
CG10467,1,1.78e5,2.27e5,1.89e6,2.07e6,inactive
CG32628 (retired record),1,2.07e5,2.06e5,2.84e6,3.09e6,inactive
CycH,1,3.07e5,2.90e5,2.01e6,1.88e6,inactive
CycH,2,3.89e5,7.82e5,8.17e5,1.23e6,inactive
CycH,3,,,,,inactive
emp,1,1.10e5,1.29e5,1.40e5,1.65e5,inactive
emp,2,1.16e6,1.07e6,2.10e6,2.36e6,inactive
CG42383,1,5.06e5,4.21e5,2.49e6,2.24e6,inactive
CG11811,1,1.83e5,2.06e5,1.89e6,1.58e6,inactive
CG11811,2,,,,,inactive
CG31663,1,2.49e5,2.83e5,4.78e5,4.52e5,inactive
CG31663,2,1.23e6,1.46e6,3.98e6,3.44e6,inactive
CG31663,3,7.85e5,7.53e5,3.55e6,3.63e6,inactive
CG31663,4,1.01e5,1.69e5,6.85e5,1.01e6,inactive

Taken from above:
CycH #1, Renilla control light, replicate 1 = 2.01e6
Value for CycH #3 under “activity call”: inactive
CG31663 #2, firefly reporter light, replicate 1: 1.23e6
Value for CG32628 (retired record) in “firefly reporter light, replicate 1”: 2.07e5
Value for emp #2 under “Renilla control light, replicate 2”: 2.36e6
Result of mRpS26 #1 in “activity call”: inactive

More reagents follow:
target gene,reagent,"firefly reporter light, replicate 1","firefly reporter light, replicate 2","Renilla control light, replicate 1","Renilla control light, replicate 2",activity call
myo,1,73322,1.13e5,8.35e5,8.03e5,inactive
CG44325,1,3.16e5,2.68e5,2.65e6,2.74e6,inactive
CG44325,2,3.30e5,3.11e5,2.30e6,2.25e6,inactive
Inx6,1,2.61e5,1.11e5,7.42e5,2.94e5,inactive
Inx6,2,3.63e5,3.38e5,9.49e5,6.85e5,inactive
CG12288,1,1.55e5,1.61e5,2.23e6,2.36e6,inactive
AstCC,1,1.77e5,1.69e5,2.06e6,1.22e6,inactive
CG2577,1,3.25e5,3.38e5,1.98e6,2.13e6,inactive
CG2577,2,6.85e5,6.77e5,9.71e5,8.68e5,inactive
CG2577,3,2.37e5,2.83e5,5.13e5,5.22e5,inactive
CG14024,1,3.23e5,3.38e5,9.31e5,8.29e5,inactive
CG14024,2,4.60e5,4.51e5,1.03e6,1.11e6,inactive
CG32756,1,9.03e5,8.03e5,6.80e5,5.19e5,inactive
CG32756,2,6.00e5,6.60e5,9.91e5,9.72e5,inactive
CG12609,1,1.97e5,1.32e5,8.14e5,2.62e5,inactive
Trs23,1,2.08e5,1.44e5,1.42e6,1.63e6,inactive
Trs23,2,8.46e5,7.78e5,1.39e6,1.46e6,inactive
Ppr-Y,1,7.50e5,9.66e5,6.81e5,7.50e5,inactive
Nepl4,1,7.54e5,7.84e5,1.32e6,1.95e6,inactive
